No constants are given. Whether binding was seen depends on the method and setting. For some of these results: Binding seen in cells or lysates may run through a third protein. Some entries that bind do so weakly or less than the wild type. For some of these results: Tags and fused reporters may be left off the sequences shown.
Tests used:
[1] = molecular target: T1, NudC, two-hybrid fusion used with Hfq (E. coli) (UniProt P32664); experiment: two-hybrid; bacterial adenylate cyclase two-hybrid (BACTH) in E. coli BTH101; T18 and T25 fusions; colonies on LB agar with X-gal (40 µg/mL) and IPTG (0.5 mM) at 30°C, colour read after 2 days
T1 sequence: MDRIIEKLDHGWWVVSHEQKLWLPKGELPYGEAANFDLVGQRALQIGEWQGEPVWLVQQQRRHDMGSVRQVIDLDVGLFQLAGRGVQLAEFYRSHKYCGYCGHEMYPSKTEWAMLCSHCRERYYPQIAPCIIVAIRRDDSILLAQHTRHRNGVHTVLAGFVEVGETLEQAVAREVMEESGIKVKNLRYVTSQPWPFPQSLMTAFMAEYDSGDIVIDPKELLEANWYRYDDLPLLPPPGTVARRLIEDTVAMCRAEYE

Sequences of proteins named here, by UniProt entry; tags and fusion partners are left off.
UniProt P0A6X3: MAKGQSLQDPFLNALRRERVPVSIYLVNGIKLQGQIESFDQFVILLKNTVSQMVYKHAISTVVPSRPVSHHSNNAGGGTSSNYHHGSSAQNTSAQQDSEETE

[2] = molecular target: T2, polyhistidine-tagged NudC (NudC-His) (E. coli) (UniProt P32664); experiment: pull-down; 243 µg purified recombinant NudC-His added to 5 mg lysate of E. coli BL21(DE3)RIL (16°C or 37°C) or BW25113 (16°C); Ni2+-charged Chelating Sepharose, 1 h 30 min at 8°C, washes with 60 mM imidazole; SDS-PAGE, band near 70 kDa cut out and identified by mass spectrometry; only the target purified
T2 sequence: T1 sequence

[3] = molecular target: T3, NudC-His expressed in an Hfq-deficient strain (JW4130) (E. coli) (UniProt P32664); experiment: pull-down; NudC-His expressed in E. coli BL21(DE3)RIL (grown at 16°C or 37°C) or in Hfq-deficient JW4130 (16°C); 5 mg lysate on Ni2+-charged Chelating Sepharose, 1 h 30 min at 8°C, washes with 60 mM imidazole in lysis buffer B (pH 7.4, 100 mM NaCl); SDS-PAGE, band near 70 kDa cut out and identified by mass spectrometry
T3 sequence: T1 sequence

[4] = molecular target: T4, T18-NudC (E. coli) (UniProt P32664); experiment: two-hybrid; bacterial adenylate cyclase two-hybrid (BACTH) in E. coli BTH101; T18 and T25 fusions; colonies on LB agar with X-gal (40 µg/mL) and IPTG (0.5 mM) at 30°C, colour read after 2 days
T4 sequence: T1 sequence

Hfq fused to T18 or T25 adenylate cyclase subunit (from UniProt P0A6X3 1-102)
binding [1]: binds

B1: DEAD-box RNA helicase CsdA (K-12 strains) (protein, UniProt P0A9P6 1-629)
chain: MAEFETTFADLGLKAPILEALNDLGYEKPSPIQAECIPHLLNGRDVLGMAQTGSGKTAAFSLPLLQNLDPELKAPQILVLAPTRELAVQVAEAMTDFSKHMRGVNVVALYGGQRYDVQLRALRQGPQIVVGTPGRLLDHLKRGTLDLSKLSGLVLDEADEMLRMGFIEDVETIMAQIPEGHQTALFSATMPEAIRRITRRFMKEPQEVRIQSSVTTRPDISQSYWTVWGMRKNEALVRFLEAEDFDAAIIFVRTKNATLEVAEALERNGYNSAALNGDMNQALREQTLERLKDGRLDILIATDVAARGLDVERISLVVNYDIPMDSESYVHRIGRTGRAGRAGRALLFVENRERRLLRNIERTMKLTIPEVELPNAELLGKRRLEKFAAKVQQQLESSDLDQYRALLSKIQPTAEGEELDLETLAAALLKMAQGERTLIVPPDAPMRPKREFRDRDDRGPRDRNDRGPRGDREDRPRRERRDVGDMQLYRIEVGRDDGVEVRHIVGAIANEGDISSRYIGNIKLFASHSTIELPKGMPGEVLQHFTRTRILNKPMNMQLLGDAQPHTGGERRGGGRGFGGERREGGRNFSGERREGGRGDGRRFSGERREGRAPRRDDSTGRRRFGGDA
binding [2]: binds | binding [3]: binds

B2: CsdA-T25 (protein, UniProt P0A9P6 1-629)
chain: B1 chain
binding [4]: binds

Source: publication PMC10654059
